Measurements as given in patent US20220033816A1.
Results are given in words; binding and its absence hold for the method and conditions named. In cells and extracts the contact can be indirect. Some results given as binding are weak or reduced against the parent protein; the word gives no strength.

The chains behind the UniProt entries cited, without tags or fusion partners. Residues count along the entry.
UniProt Q15078, residues 2-307: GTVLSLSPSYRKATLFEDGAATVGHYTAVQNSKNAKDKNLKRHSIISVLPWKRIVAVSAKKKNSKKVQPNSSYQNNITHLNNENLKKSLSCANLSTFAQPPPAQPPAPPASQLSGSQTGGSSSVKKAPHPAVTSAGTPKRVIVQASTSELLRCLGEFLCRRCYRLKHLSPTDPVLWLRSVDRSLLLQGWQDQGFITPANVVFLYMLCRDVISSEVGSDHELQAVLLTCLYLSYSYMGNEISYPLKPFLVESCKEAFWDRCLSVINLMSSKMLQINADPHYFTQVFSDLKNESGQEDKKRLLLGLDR

Target: cyclin-dependent kinase 5 (CDK5) (UniProt Q00535)
Assay: co-immunoprecipitation (CO-IP) and Western blot from SH-SY5Y cells overexpressing a p35 plasmid

“p35 (CDK 5 regulatory subunit 1) (from UniProt Q15078 2-307)” was tested, and the binding was “binds”.
